Source: patent US20160258933A1 (Dana-Farber, published 2016)
No constants are given. Whether binding was seen depends on the method and setting. Binding seen in cells or lysates may run through a third protein. Some results given as binding are weak or reduced against the parent protein; the word gives no strength. Blank lines part the entries; values can stand above or below the molecule they belong to.

Sequences of proteins named here, by UniProt entry; tags and fusion partners are left off.
UniProt P10415: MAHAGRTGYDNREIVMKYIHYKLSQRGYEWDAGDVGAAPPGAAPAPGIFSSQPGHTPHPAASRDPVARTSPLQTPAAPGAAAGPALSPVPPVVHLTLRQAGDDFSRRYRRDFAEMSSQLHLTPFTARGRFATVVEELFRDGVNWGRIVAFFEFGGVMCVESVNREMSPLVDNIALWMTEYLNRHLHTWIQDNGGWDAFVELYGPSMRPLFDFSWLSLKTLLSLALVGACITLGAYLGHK
UniProt O54918: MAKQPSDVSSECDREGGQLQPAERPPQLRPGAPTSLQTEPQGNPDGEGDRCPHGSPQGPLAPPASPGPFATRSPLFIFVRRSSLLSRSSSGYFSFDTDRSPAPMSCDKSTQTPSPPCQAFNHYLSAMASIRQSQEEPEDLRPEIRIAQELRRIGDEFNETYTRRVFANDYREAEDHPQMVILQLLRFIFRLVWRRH

How the values were obtained:
[1] = target: human BCL-2 (cellular, whole protein) (human) (UniProt P10415); assay: co-immunoprecipitation with anti-human BCL-2 antibody from FL5.12-BCL-2 lysates, immunoblot
[2] = target: human BCL-2 (cellular, whole protein) (human) (UniProt P10415); assay: co-immunoprecipitation with anti-human BCL-2 antibody from murine leukemia cell lysate, immunoblot

binding [1]: binds | binding [2]: binds
Molecule: BIM (endogenous, murine cells) (from UniProt O54918 1-196)

binding [2]: binds
B1: PUMA (endogenous, murine leukemia cells) (protein, UniProt Q99ML1 1-193, looked up)
chain: MARARQEGSSPEPVEGLARDSPRPFPLGRLMPSAVSCSLCEPGLPAAPAAPALLPAAYLCAPTAPPAVTAALGGPRWPGGHRSRPRGPRPDGPQPSLSPAQQHLESPVPSAPEALAGGPTQAAPGVRVEEEEWAREIGAQLRRMADDLNAQYERRRQEEQHRHRPSPWRVMYNLFMGLLPLPRDPGAPEMEPN
